The values below come from patent US7569724B2, “Carbamic acid compounds comprising an amide linkage as HDAC inhibitors” (Topotarget UK Limited, priority 2000, dated 2009).

Each structure is given as a SMILES string.

For test [1], the system named is K11 HPV E7 transformed human keratinocyte line. In words: Secondary assay: cell proliferation WST-1, K11. Format: cell-based. Particulars: 48 h, read-out: Cell Proliferation Inhibition WST-1 (IC50 unless otherwise specified) K11. How it is done:
(§1) Compounds with HDAC inhibition activity, as determined using the primary assay, were subsequently evaluated using secondary cell-based assays. The following cell lines were used:
K11—HPV E7 transformed human keratinocyte line provided by Pidder Jansen-Duerr, Institut für Biomedizinische Alternsforschung, Innsbruck, Austria.
(§2) Cells were plated in 96-well plates at 3-10×10^3 cells/well in 100 μL of culture medium. The following day, different concentrations of candidate compounds were added and the cells incubated at 37° C. for 48 h. Subsequently, 10 μL/well of WST-1 reagent was added and the cells reincubated for 1 hour. After the incubation time, absorbance was measured.
WST-1 is a tetrazolium salt which is cleaved to formazan dye by cellular enzymes. […] The formazan dye produced is quantified by a scanning multiwell spectrophotometer by measuring the absorbance of the dye solution at 450 nm wavelength (reference wavelength 690 nm).
(§3) Percent activity (% activity) in reducing the number of viable cells was calculated for each test compound as: % activity={(S^C−B)/(S^o−B)}×100 wherein S^C denotes signal measured in the presence of the compound being tested, S^o denotes signal measured in the absence of the compound being tested, and B denotes the background signal measured in blank wells containing medium only. […]
Background: Tetrazolium dyes change colour on reduction, which living cells bring about.

Test [2] deals with NHEK-Ad primary human adult keratinocyte line. As to the kind of experiment: Secondary assay: cell proliferation WST-1, NHEK-Ad. Format: cell-based. Particulars: 48 h, read-out: Cell Proliferation Inhibition WST-1 (IC50 unless otherwise specified) NHEK-AD. How it is done:
as §1
NHEK-Ad—Primary human adult keratinocyte line (Cambrex Corp., East Rutherford, N.J., USA).
as §2
WST-1 is a tetrazolium salt which is cleaved to formazan dye by cellular enzymes. An expansion in the number of viable cells results in an increase in the overall activity of mitochondrial dehydrogenases in the sample. […] The formazan dye produced is quantified by a scanning multiwell spectrophotometer by measuring the absorbance of the dye solution at 450 nm wavelength (reference wavelength 690 nm).
as §3

As to `O=C(CCCCCCC(=O)Nc1ccccc1)NO` [SAHA, Suberoylanilide Hydroxamic Acid, reference compound], the values for the IC50 in test [1] and in test [2] were 6.82 µM and 5.3 µM, respectively.
